The whole screen tested about 330,000 compounds, of which about 7,700 (2.3%) were called active. Inconclusive means that the source gave no clear call. Such entries were picked first, then a sample of the others. Calls come from the whole dose curve; as a rule, active = well fitted inhibition curve with a large enough effect; inconclusive = small, poorly fitted or top-dose-only effect, or effect the other way; inactive = flat fitted curve, though single readings scatter. Potencies of inconclusive entries are doubtful fits and often do not repeat.
Assay: qHTS screen for small molecules that inhibit ELG1-dependent DNA repair in human embryonic kidney (HEK293T) cells expressing luciferase-tagged ELG1; note: nearly all actives have a fitted effect of over 55% in size
Details: HEK293T ELG1-luciferase reporter, luminescence, 16 h, DNA damage induced by 5-fluorouridine; series mostly up to 46.1 µM
Procedure, shortened: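 Step one: seed 2,000 cells per well. Step two: pin-transfer compound or DMSO alongside 5-fluorouridine. Step three: incubate 16 hr, 37 °C, 5% CO2. Step four: add ONE-Glo, wait 30 min, read luminescence.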
For `COc1cc(C(=O)Nc2cccc3c2CCCC3)cc(OC)c1OC`, the Potency was “inactive”. For `COc1cc(NC(=O)c2cc(S(=O)(=O)N3CCCCC3)ccc2N2CCOCC2)cc(OC)c1`, the Potency was inconclusive: 6.51 µM [inhibitor, single point]. In the case of `Cc1[nH]n(-c2ccccc2)c(=O)c1N=Nc1ccc(C(N)=O)cc1`, the Potency is reported as “inactive”. In the case of `CC1CN(S(=O)(=O)c2cccc(C(=O)OCC(=O)c3cccs3)c2)CC(C)O1` (stereo not drawn), the Potency is reported as “inactive”. For `Oc1cccc(/C=C/c2ccc3cccc(O)c3n2)c1`, the Potency was inconclusive: 4.61 µM [activator, single point]. With `CC1=CC(C)(C)Nc2ccc(OC(=O)CN3C(=O)CCC3=O)cc21` the Potency was inconclusive: 5.17 µM [inhibitor, partial curve, poor fit]. In the case of `CCn1cc(/C=N/NC(=O)c2cc3c(ccc4ccccc43)o2)c2ccccc21`, the Potency is reported as inconclusive: 20.6 µM [inhibitor, single point]. In the case of `CCN(C[C@H]1N[C@@](C)(C(=O)OC)[C@H]2C(=O)N(Cc3ccccc3)C(=O)[C@@H]12)C(=O)c1ccc(C(C)(C)C)cc1`, the Potency is reported as active: 10.3 µM. In the case of `OCCN(CCO)CC(O)COCCC12CC3CC(CC(C3)C1)C2` (stereo not drawn), the Potency is reported as “inactive”. In the case of `O=C(COc1cc2oc(=O)c3c(c2cc1Cl)CCC3)NCCN1CCOCC1`, the Potency is reported as inconclusive: 11.6 µM [activator, partial curve, poor fit]. In the case of `O=C1/C(=C/c2ccco2)SC(=S)N1CCC(=O)N1CCCCC1CCO` (stereo not drawn), the Potency is reported as “inactive”. With `COc1ccccc1CN(Cc1nc2ccccc2c(=O)[nH]1)C(=O)Nc1ccc(C)cc1` the Potency was inconclusive: 20.6 µM [inhibitor, single point]. In the case of `Cc1ccc(N2C(=O)CC(N(O)C3CC(=O)N(c4ccc(C)cc4)C3=O)C2=O)cc1` (stereo not drawn), the Potency is reported as “inactive”. For `O=C(Nc1ccc(Cl)cc1)c1ccc2snnc2c1`, the Potency was inconclusive: 16.4 µM [activator, partial curve]. For `O=C(N/N=C/c1cccnc1)c1cc(Br)ccc1O`, the Potency was inconclusive: 16.4 µM [activator, partial curve]. With `Cc1cc(Nc2ccccc2N2CCOCC2)n2ncnc2n1` the Potency was inconclusive: 20.6 µM [activator, partial curve]. With `COc1ccc(C(=O)CC(=O)C(=O)Nc2ccccc2C(F)(F)F)cc1` the Potency was inconclusive: 7.3 µM [inhibitor, partial curve]. In the case of `O=C(c1cc2sccc2n1Cc1ccccc1)N1CCc2ccccc21`, the Potency is reported as inconclusive: 18.4 µM [activator, single point]. In the case of `COc1ccc(CN2CCN(C(=O)C3CCN(C(=O)Nc4ccccc4)CC3)CC2)cc1OC`, the Potency is reported as inconclusive: 29.1 µM [inhibitor, partial curve, poor fit]. In the case of `c1ccc(-c2onc3cc4c(cc23)OCCO4)cc1`, the Potency is reported as inconclusive: 5.17 µM [activator, partial curve]. In the case of `NC(=O)c1cc(S(=O)(=O)NCc2ccc(F)cc2)cs1`, the Potency is reported as “inactive”. In the case of `CCN(C(=O)Cc1ccccc1OC)c1nnc(-c2ccncc2)s1`, the Potency is reported as inconclusive: 23.1 µM [inhibitor, single point]. With `O=C(OCc1nc2ccccc2s1)c1cc2ccccc2oc1=O` the Potency was inconclusive: 20.6 µM [activator, partial curve]. With `Cc1ccccc1CSCC(=O)NC(=O)NCc1ccco1` the Potency was “inactive”. With `Cc1ccnc(N2C(=O)c3ccccc3C2O)c1` (stereo not drawn) the Potency was inconclusive: 2.06 µM [activator, full curve]. For `CC(C)n1cc(CN2CCC(C(=O)Nc3cccc(-c4cscn4)c3)CC2)cn1`, the Potency was “inactive”. For `COc1ccc(CNC(=O)COC(=O)c2cccc(S(=O)(=O)N3CCOCC3)c2)cc1`, the Potency was “inactive”. With `COc1ccc(-c2cc(C(=O)NC3CCCC3)c3ccccc3n2)cc1` the Potency was “inactive”. In the case of `O=C(CSc1nncn1-c1ccccc1F)NC1CC1`, the Potency is reported as inconclusive: 20.6 µM [activator, single point]. In the case of `O=C(CSc1nnc(COc2ccccc2)n1-c1ccccc1)c1cccs1`, the Potency is reported as inconclusive: 20.6 µM [inhibitor, partial curve]. In the case of `Cc1ccc2c(c1)C(c1ccccc1)N(C(=O)C(C)C)CC(=O)N2` (stereo not drawn), the Potency is reported as “inactive”. In the case of `CC1=C/C(=C(\c2cc(C)c(O)c(Br)c2)c2ccccc2S(=O)(=O)O)C=C(Br)C1=O`, the Potency is reported as inconclusive: 8.91 µM [inhibitor, partial curve, poor fit]. With `CC(C)(C)N(Cc1ccccc1)C(=O)COC(=O)CN1C(=O)NC2(CCCC2)C1=O` the Potency was inconclusive: 23.1 µM [inhibitor, partial curve, poor fit]. With `N/C(=N\OC(=O)c1ccc(Cl)cc1)c1[nH]ncc1Br` the Potency was inconclusive: 2.59 µM [activator, full curve]. With `CCC(NC(=O)CCc1c(C)c2cc3c4c(oc3cc2oc1=O)CCCC4)C(=O)O` (stereo not drawn) the Potency was inconclusive: 18.3 µM [activator, single point]. In the case of `COc1ccc(/C=C/C(=O)NC(=S)NCc2ccccc2)cc1OC`, the Potency is reported as inconclusive: 20.6 µM [activator, single point]. For `Cn1nnnc1SCc1csc(Nc2ccccc2)n1`, the Potency was inconclusive: 18.4 µM [activator, partial curve]. For `Cc1nc2nc(NC(=O)c3ccco3)nn2c(C)c1Cl`, the Potency was inconclusive: 20.6 µM [activator, partial curve]. With `Cc1nn(CC(=O)Nc2ccc(Br)cc2F)c(=O)c2cccn12` the Potency was “inactive”. With `Cc1ccc(CN2CCN(Cc3c[nH]c4ccccc34)CC2CCO)o1` (stereo not drawn) the Potency was “inactive”. For `CC1CCCC(C)N1C(=O)c1cc(-c2ccc3c(c2)OCO3)on1` (stereo not drawn), the Potency was inconclusive: 5.8 µM [activator, partial curve]. For `C1CCN(c2nc3nonc3nc2NCC2CCOCC2)CC1`, the Potency was inconclusive: 25.9 µM [inhibitor, partial curve, poor fit]. In the case of `O=C(Cc1c(F)cccc1Cl)Nc1cc(S(=O)(=O)N2CCOCC2)ccc1N1CCCC1`, the Potency is reported as “inactive”. With `COc1ccc(OCCn2ccnc2)cc1` the Potency was inconclusive: 6.31 µM [inhibitor, full curve, poor fit]. For `COc1ccc(-c2noc(CN(C)C(=O)c3ccco3)n2)cc1`, the Potency was inconclusive: 18.3 µM [activator, single point]. With `O=C(CSc1nc2ccccc2s1)NNC(=S)Nc1ccccc1` the Potency was “inactive”. With `CNC(=O)c1ccc(-c2sc3nc(N4CCOCC4)c4c(c3c2N)CC(C)(C)OC4)o1` the Potency was inconclusive: 1 µM [inhibitor, partial curve, poor fit]. For `C=CCOc1c(CNn2nnnc2N)cccc1OC`, the Potency was “inactive”. In the case of `O=C(CCS(=O)(=O)c1ccccc1)N1CCCc2ccccc21`, the Potency is reported as inconclusive: 29.1 µM [activator, single point]. For `CC(=O)Nc1ccc(NC(=O)COc2ccc(Cl)cc2Cl)cc1`, the Potency was inconclusive: 18.3 µM [activator, single point]. With `O=C(COC(=O)/C=C/c1ccccc1)NC1CCCCCC1` the Potency was “inactive”. For `O=C(Cn1nnc(-c2ccccc2Cl)n1)N1CCCCC1`, the Potency was inconclusive: 16.4 µM [activator, partial curve]. With `C/C(=N\NC(=O)c1c(Cl)c(C)nn1C)c1cccc(NC(=O)C2CCCC2)c1` the Potency was inconclusive: 18.3 µM [inhibitor, single point]. For `CN1CC(=O)N(CC(=O)Nc2ccc(OCc3ccccc3)cc2)C1=O`, the Potency was inconclusive: 20.6 µM [activator, single point]. With `COC(=O)c1c(NC(=O)CN2CCN(C(=O)c3ccco3)CC2)c2cc(C)ccc2n1C` the Potency was active: 20.6 µM. For `Cc1ccc(NC(=O)c2sc3ncn(CC(=O)N4CCN(c5ccccn5)CC4)c(=O)c3c2C)cc1Cl`, the Potency was “inactive”. For `CCOc1cc(N2CCOCC2)c(OCC)cc1NC(=O)c1cc(S(=O)(=O)N2CCOCC2)ccc1C`, the Potency was inconclusive: 20.6 µM [inhibitor, partial curve, poor fit]. In the case of `COc1ccc(Cl)cc1NC(=S)Nc1ccccc1F`, the Potency is reported as “inactive”. For `C/C=C/C(=O)Nc1cccc(C2=NOC3(C2)C[C@@H](C(N)=O)N(C(=O)/C(C)=C/C)C3)c1` (stereo partly drawn), the Potency was inconclusive: 1.03 µM [inhibitor, single point]. For `COc1cc([C@H]2OC[C@H]3[C@@H]2CO[C@H]3c2ccc(O)c(OC)c2)ccc1O`, the Potency was inconclusive: 11.6 µM [activator, partial curve, poor fit]. For `O=C(CNS(=O)(=O)c1ccc2ccccc2c1)OCC(=O)c1ccc(Br)s1`, the Potency was inconclusive: 14.6 µM [activator, partial curve, poor fit]. For `CC(=O)c1c(C)cc(C)c(CSc2ccccn2)c1C`, the Potency was inconclusive: 29.1 µM [activator, partial curve, poor fit]. With `CCCc1cc(=O)oc2cc(OCC(=O)Nc3ccccn3)ccc12` the Potency was inconclusive: 10.3 µM [activator, partial curve]. For `O=C(Nc1ccc2c(c1)OCCO2)c1ccc(Cl)c(S(=O)(=O)N2CCCCC2)c1`, the Potency was inconclusive: 20.6 µM [inhibitor, single point]. For `O=C(Nc1nccs1)c1ccc(COc2c(F)c(F)cc(F)c2F)o1`, the Potency was inconclusive: 23.1 µM [activator, partial curve, poor fit]. For `O=C(CCCn1c(=O)[nH]c2cc(Cl)ccc2c1=O)NCCCN1CCN(c2ccc(F)cc2)CC1`, the Potency was inconclusive: 32.6 µM [inhibitor, single point]. With `Cn1c(SCc2cccc(C#N)c2)nc2ccccc2c1=O` the Potency was inconclusive: 14.6 µM [inhibitor, partial curve, poor fit]. With `CCOc1ccc(CN(C)CC(=O)Nc2cccc(S(=O)(=O)N(C)c3ccccc3)c2)cc1` the Potency was inconclusive: 18.3 µM [inhibitor, single point].
Potency is the fitted concentration of half-maximal effect.
